# Assay results: PubChem BioAssay AID652054 (National Center for Advancing Translational Sciences (NCATS), 2013)
# Amino acid sequences for entries named in this document (tags omitted).
# UniProt P35462, whole entry, looked up: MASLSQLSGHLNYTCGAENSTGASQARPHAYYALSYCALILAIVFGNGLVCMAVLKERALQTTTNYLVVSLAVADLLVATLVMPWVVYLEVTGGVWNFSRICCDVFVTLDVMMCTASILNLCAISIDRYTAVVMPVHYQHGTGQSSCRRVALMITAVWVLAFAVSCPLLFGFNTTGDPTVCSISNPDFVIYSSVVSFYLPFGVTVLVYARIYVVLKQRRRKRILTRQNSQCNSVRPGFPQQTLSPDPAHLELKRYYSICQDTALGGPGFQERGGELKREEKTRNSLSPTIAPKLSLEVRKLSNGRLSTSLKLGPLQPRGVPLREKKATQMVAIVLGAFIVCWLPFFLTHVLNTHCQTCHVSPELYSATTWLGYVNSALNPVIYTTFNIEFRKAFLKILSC
# About 9,100 (2.5%) of roughly 360,000 compounds were called active. The inconclusive results got no clear call from the source; some entries with a clear call stand among them for comparison. No stated cut-off is given here; in the data, active means max response below about -50%; inconclusive means no clear call, values can overlap the other calls; inactive means above that.
# Target: D(3) dopamine receptor (Homo sapiens) (UniProt P35462)
# Experiment: qHTS of D3 Dopamine Receptor Antagonist: qHTS
# Conditions: D3R cells, DiscoveRx beta-arrestin luminescence, antagonist mode; hits give low values
# How it was run: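 Cells plated overnight at 1500 cells/well, then exposed to library compounds with dopamine controls for 90 minutes at 37 degrees C. DiscoveRx reagent added for 30–60 minutes at room temperature; luminescence read, quantitative HTS format.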
# On the % scale 0 is the no-effect control and ±100 the full control effect.
row,Structure (SMILES),"max response, negative = inhibition"
1,O=C(Nc1nc(-c2cccs2)cs1)C1=COCCO1,inconclusive: -36%
2,CC1(C(=O)NCc2cccs2)CCN1C(=O)Cc1ccc(Cl)cc1Cl (stereo not given),inactive: -20.3%
3,CC1(C)N=C(c2ccccc2)C(=O)N1,inactive: 13.8%
4,Cc1ccc(C(NC(=O)C(C)C)c2cc([N+](=O)[O-])c3cccnc3c2O)cc1 (stereo not given),inconclusive: -40.4%
5,Cc1csc(NC(=S)Nc2cccc(Cl)c2)n1,inconclusive: -31.6%
6,Cc1ccc(NC2=C/C(=N/S(=O)(=O)c3cccs3)c3ccccc3C2=O)cc1,active: -71.6%
7,Cc1cccc(NC(=O)c2onc3c2CCCC3)n1,inactive: -1.07%
8,O=C(NCC1CC1)c1csc(COCCO)n1,inactive: -21.5%
9,NC(=O)Nc1ccc(Oc2ncc(C(F)(F)F)cc2Cl)cc1,inactive: 3.26%
10,COc1cc(CNCc2ccccn2)ccc1OCc1ccc(Cl)cc1Cl,active: -67.2%
11,CCS(=O)(=O)n1nc(NCc2cccc(OC)c2)nc1NCc1cccc(OC)c1,inconclusive: -30.6%
12,O=C(CSc1ncnc2c1oc1ccccc12)OCc1ccccc1,inactive: 11.2%
13,Oc1ccc(Br)cc1CNc1cccc2cccnc12,inconclusive: -37.6%
14,COc1ccc(C(=O)NCC(=O)N2CCN(c3ccc(F)cc3)CC2)cc1,inactive: 17.3%
15,COc1ccccc1N(C)S(=O)(=O)c1ccc(C(=O)NCC2CCCCC2)cc1,inconclusive: -46.3%
16,CC1CN(C(=O)c2cc(S(=O)(=O)N3CCCC3)ccc2Cl)CC(C)O1 (stereo not given),inactive: 0.735%
17,COc1cccc(CNc2nc3cc(-c4ccc(C(=O)N5CCN(C)CC5)cc4)sc3c(=O)n2C)c1,inconclusive: -30.3%
18,Cc1ccc(NC(=O)c2cccs2)cc1,inconclusive: -32.7%
19,CC(C)(C)c1ccc(C(=O)NC(=S)NCc2cccnc2)cc1,inactive: 5.03%
20,CS(=O)(=O)c1ccc(NS(=O)(=O)c2ccc3ccccc3c2)cc1,inactive: -8.39%
21,CSc1ccc(/C=N/NC(=O)c2ccccc2Cl)cc1,inconclusive: -31.5%
22,CCN(CCCc1ccccc1)CCCc1ccccc1,active: -96.3%
23,Cc1cccc(C(=O)NCC(c2cccs2)N2CCOCC2)c1 (stereo not given),active: -57.9%

# 10 entries from above, bar-delimited.
row | Structure (SMILES) | max response, negative = inhibition
1 | O=C(Nc1nc(-c2cccs2)cs1)C1=COCCO1 | inconclusive: -36%
3 | CC1(C)N=C(c2ccccc2)C(=O)N1 | inactive: 13.8%
8 | O=C(NCC1CC1)c1csc(COCCO)n1 | inactive: -21.5%
9 | NC(=O)Nc1ccc(Oc2ncc(C(F)(F)F)cc2Cl)cc1 | inactive: 3.26%
11 | CCS(=O)(=O)n1nc(NCc2cccc(OC)c2)nc1NCc1cccc(OC)c1 | inconclusive: -30.6%
12 | O=C(CSc1ncnc2c1oc1ccccc12)OCc1ccccc1 | inactive: 11.2%
15 | COc1ccccc1N(C)S(=O)(=O)c1ccc(C(=O)NCC2CCCCC2)cc1 | inconclusive: -46.3%
16 | CC1CN(C(=O)c2cc(S(=O)(=O)N3CCCC3)ccc2Cl)CC(C)O1 (stereo not given) | inactive: 0.735%
17 | COc1cccc(CNc2nc3cc(-c4ccc(C(=O)N5CCN(C)CC5)cc4)sc3c(=O)n2C)c1 | inconclusive: -30.3%
18 | Cc1ccc(NC(=O)c2cccs2)cc1 | inconclusive: -32.7%

# (listing goes on)

row,Structure (SMILES),"max response, negative = inhibition"
1,O=C1OCC(CO)(CO)N=C1NNc1ccc(Cl)c(Cl)c1,inconclusive: -37.7%
2,COC(=O)Nc1ccc(SCC(=O)c2cccc([N+](=O)[O-])c2)cc1,active: -60.3%
3,Cc1ccc2nc(/C(C#N)=C\c3cc(C)n(-c4cccc([N+](=O)[O-])c4)c3C)[nH]c2c1,active: -53.2%
4,Cn1c(CN2CCCC2)nc2cc(NS(=O)(=O)c3ccccc3)ccc21,active: -79.7%
5,COc1ccccc1N1CCN(CC(=O)Nc2ccc(C)c(F)c2)CC1,inconclusive: -39%
6,CC(=O)CSc1ncnc2nc[nH]c12,inconclusive: -30.8%
7,CC(C)C[C@@H](CN1CCCC1CN1C(=S)NC[C@@H]1Cc1ccc(O)cc1)N1C[C@H](Cc2ccccc2)N(CCc2ccccc2)C1=S (stereo not given in full),inactive: -28.6%
8,CCOc1ccc(C(C)=O)cc1COc1ccc(-n2cnnn2)cc1,inactive: 10.6%
9,CC(O)CNCCOc1ccccc1OCc1ccccc1 (stereo not given),active: -79.7%
10,OCc1ccccc1CNCc1ccccc1,inactive: -17%
11,Fc1ccc(N2CN(Cc3cccnc3)CNC2=S)cc1,inconclusive: -30.9%
12,Cc1cc2c(c(=O)n1CCN(C)C)C(c1ccncc1)C(C#N)=C(N)O2 (stereo not given),inactive: -26.6%
13,O=[N+]([O-])c1ccc2nc(Cl)nc(-c3ccccc3)c2c1,active: -56%
14,CN(C)c1ccc(/C=C2/SC(=O)N(CCN=C3NS(=O)(=O)c4ccccc43)C2=O)cc1,inactive: 6.23%
15,O=[N+]([O-])c1ccccc1OCCCN1CCOCC1,inconclusive: -43.9%
16,Cc1cc(C)nc(/N=C(\N)Nc2ccc(C(C)C)cc2)n1,inactive: 4.65%
17,Cc1cc(/C=N/NC(N)=S)c(C)n1-c1ccc(Br)cc1,active: -67.2%
18,O=C(CS(=O)(=O)c1ccc(Cl)c(Cl)c1)Nc1ccccc1Cl,inconclusive: -32%
19,Cc1ccc(CN2CC(C(=O)Nc3ccc(S(=O)(=O)Nc4cc(C)nc(C)n4)cc3)CC2=O)cc1 (stereo not given),inconclusive: -49.4%
20,Fc1ccc(-c2n[nH]c(=S)n2/N=C/c2c[nH]c3ccccc23)cc1,inconclusive: -32.9%
21,Cc1ccc(Cn2nnnc2CN2CCC(O)(c3ccc(F)cc3)CC2)cc1,inconclusive: -34.8%
22,C=CCSc1nnc(NC(=O)C2CC(=O)N(Cc3ccc(C)cc3)C2)s1 (stereo not given),inconclusive: -31.5%
